Data: US20080118529A1
These are yes or no findings as the source states them, for the method shown. Some results given as binding are weak or reduced against the parent protein; the word gives no strength.

Amino acid sequences for entries named in this document (tags omitted). Residues count along the entry.
UniProt P02749, residues 20-345: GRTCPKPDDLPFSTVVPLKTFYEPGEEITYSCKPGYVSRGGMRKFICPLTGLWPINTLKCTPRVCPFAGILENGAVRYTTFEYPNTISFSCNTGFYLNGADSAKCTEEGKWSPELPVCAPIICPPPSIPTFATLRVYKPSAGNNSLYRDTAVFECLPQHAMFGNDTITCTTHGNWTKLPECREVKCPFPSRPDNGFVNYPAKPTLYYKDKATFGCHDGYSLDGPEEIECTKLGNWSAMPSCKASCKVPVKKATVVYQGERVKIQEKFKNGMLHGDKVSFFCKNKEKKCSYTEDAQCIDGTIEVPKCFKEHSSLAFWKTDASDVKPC

Tests used:
[1] = target: β2GPI bound to cardiolipin immobilized on the wells of an ELISA plate (UniProt P02749); assay: ELISA on β2GPI bound to immobilized cardiolipin
[2] = target: β2GPI immobilized directly on the wells of an ELISA plate (FIG. 3G) (UniProt P02749); assay: ELISA on β2GPI immobilized directly on the plate
lysozyme (ICN, 100831) = lysozyme (ICN, 100831) (UniProt P00698); assay: ELISA; protein incubated with DXS500k or buffer immobilized, overlaid with tPA in 10 mM εACA

Measured: binding

Tissue-type plasminogen activator (tPA, Actilyse, Boehringer-Ingelheim) (from UniProt P00750 36-562) (enzyme)
binds: all assays above
